The results in this text go back to patent US12065471B2, “B*44 restricted peptides for use in immunotherapy against cancers and related methods” (Immatics Biotechnologies GmbH, priority 2018, dated 2024).

For some of these results: For expression read-outs the peptide stands for its source gene, whose mRNA was measured; the gene is not named for every peptide.

Series [1] has as its system HLA molecules of primary tumor and normal tissue samples. Description: Identification and quantitation of tumor associated peptides presented on the cell surface (HLA immunoprecipitation, label-free LC-MS). Set-up: species or system human. The note with it: cancer entities on which the peptide was found presented (HLA immunoprecipitation, LC-MS); abbreviations in table footnotes.

In series [2] the test system is source genes (mRNA) in tumor and normal tissues. Description: Expression profiling of genes encoding the peptides (RNAseq). Set-up: species or system human. The note with it: for Gene Expression in tumor samples: highly over-expressed (++): tumor types in which the peptide's source gene is highly over-expressed compared to a panel of normal tissues (RNAseq); for Gene Expression in tumor samples: over-expressed (+): tumor types in which the peptide's source gene is over-expressed compared to a panel of normal tissues (RNAseq); for Gene Expression in tumor samples: very highly over-expressed (+++): tumor types in which the peptide's source gene is very highly over-expressed compared to a panel of normal tissues (RNAseq).

In the case of “206: peptide found in ADAMTS12 (gene looked up) (SEDPEKYYL; listed as Homo sapiens) [compound 206]”, the “Peptide Presentation on cancer entities” value in series [1] is reported as “CCC, NSCLCsquam”. Moreover, in series [2], the “Gene Expression in tumor samples: highly over-expressed (++)” value is “CCC, GBC” and the “Gene Expression in tumor samples: over-expressed (+)” value (shortened to “Gene Expression … over-expressed (+)”) is recorded as “BRCA, CRC, GC, HNSCC, MEL, NSCLCadeno, NSCLCother, NSCLCsquam, OSCAR, PACA, SCLC, UBC”.
Consider “419: peptide found in ACP3 (gene looked up) (SELSLLSLY; listed as Homo sapiens) [compound 419]”, for which, in series [1], the “Peptide Presentation on cancer entities” value is “PRCA”. Further, the “Gene Expression in tumor samples: very highly over-expressed (+++)” value in series [2] is recorded as “PRCA”.
For “349: peptide found in MPL (gene looked up) (LEWQHPSSW; listed as Homo sapiens) [compound 349]”, in series [1], the “Peptide Presentation on cancer entities” value is given as “AML”. The “Gene Expression … over-expressed (+)” value in series [2] was “AML”.
On to “6: peptide found in ACP3 (gene looked up) (AELVGPVIPQDW; listed as Homo sapiens) [compound 6]”, for which the “Peptide Presentation on cancer entities” value in series [1] is “PRCA”. In addition, the “Gene Expression in tumor samples: very highly over-expressed (+++)” value in series [2] is on record as “PRCA”.
Take “446: peptide found in FOLH1 (gene looked up) (AENIKKFLY; listed as Homo sapiens) [compound 446]”: the “Peptide Presentation on cancer entities” value in series [1] is given as “CRC, HCC, MEL, NSCLCsquam, PRCA, RCC”. In series [2], the “Gene Expression in tumor samples: highly over-expressed (++)” value is given as “PRCA”.
As to “31: peptide found in ESR1 (gene looked up) (MESAKETRY; listed as Homo sapiens) [compound 31]”, the “Peptide Presentation on cancer entities” value in series [1] was “BRCA, UEC”. Further, in series [2], the “Gene Expression in tumor samples: highly over-expressed (++)” value is reported as “BRCA, OC, UEC”.
On to “191: peptide found in PHEX (gene looked up) (AEHDMKSVL; listed as Homo sapiens) [compound 191]”, for which the “Peptide Presentation on cancer entities” value in series [1] was “NHL”. Besides, in series [2], the “Gene Expression in tumor samples: highly over-expressed (++)” value is listed as “CLL” and the “Gene Expression … over-expressed (+)” value is “NHL”.
On to “32: peptide found in FLT3 (gene looked up) (REYEYDLKW; listed as Homo sapiens) [compound 32]”, for which, in series [1], the “Peptide Presentation on cancer entities” value is listed as “AML”. Further, the “Gene Expression in tumor samples: highly over-expressed (++)” value in series [2] is “AML”.
On to “42: peptide found in MMP1 (gene looked up) (SEENTGKTYF; listed as Homo sapiens) [compound 42]”, for which the “Peptide Presentation on cancer entities” value in series [1] is on record as “HNSCC, NSCLCsquam, OSCAR”. In series [2], the “Gene Expression in tumor samples: highly over-expressed (++)” value was “HNSCC, NSCLCsquam, OSCAR” and the “Gene Expression … over-expressed (+)” value was “CRC, GC, NSCLCadeno, PACA, UBC”.
With “152: peptide found in F5 (gene looked up) (HENLIEDF; listed as Homo sapiens) [compound 152]”, the “Peptide Presentation on cancer entities” value in series [1] is given as “HCC, OSCAR”. Besides, in series [2], the “Gene Expression in tumor samples: highly over-expressed (++)” value is “HCC” and the “Gene Expression … over-expressed (+)” value was “CCC”.
For “143: peptide found in NOTUM (gene looked up) (HEIIIRSHW; listed as Homo sapiens) [compound 143]”, the “Peptide Presentation on cancer entities” value in series [1] is listed as “CRC, HCC, UEC”. Further, in series [2], the “Gene Expression in tumor samples: highly over-expressed (++)” value is given as “HCC”.
“340: peptide found in ABCC4 (gene looked up) (GELAPSHGL; listed as Homo sapiens) [compound 340]”: the “Peptide Presentation on cancer entities” value in series [1] is recorded as “PRCA”. Moreover, the “Gene Expression … over-expressed (+)” value in series [2] is recorded as “PRCA”.
As for “161: peptide found in DNTT (gene looked up) (GESSEVKAVL; listed as Homo sapiens) [compound 161]”, the “Peptide Presentation on cancer entities” value in series [1] was “AML”. Also, the “Gene Expression in tumor samples: highly over-expressed (++)” value in series [2] is recorded as “AML”.
Take “288: peptide found in UGT1A3 (gene looked up) (TEHFLKKFF; listed as Homo sapiens) [compound 288]”: the “Peptide Presentation on cancer entities” value in series [1] was “HCC”. For the same substance, the “Gene Expression in tumor samples: highly over-expressed (++)” value in series [2] is on record as “HCC”.
As to “104: peptide found in SIGLEC15 (gene looked up) (EVHSSPAQRW; listed as Homo sapiens) [compound 104]”, the “Peptide Presentation on cancer entities” value in series [1] is recorded as “UBC”. Moreover, in series [2], the “Gene Expression in tumor samples: highly over-expressed (++)” value is listed as “UBC” and the “Gene Expression … over-expressed (+)” value is on record as “AML, CCC, GC, HCC, NHL, OC, PACA, UEC”.
For the substance “3: peptide found in TRPM8 (gene looked up) (DEIFTNDRRW; listed as Homo sapiens) [compound 3]”, the “Peptide Presentation on cancer entities” value in series [1] is recorded as “PRCA”. Further, in series [2], the “Gene Expression in tumor samples: highly over-expressed (++)” value was “GBM, MEL, SCLC”; the “Gene Expression … over-expressed (+)” value is “UEC”; the “Gene Expression in tumor samples: very highly over-expressed (+++)” value is given as “PRCA”.
“22: peptide found in FLT3 (gene looked up) (TEEITEGVW; listed as Homo sapiens) [compound 22]”: in series [1], the “Peptide Presentation on cancer entities” value is reported as “AML, CLL, HNSCC, NSCLCadeno”. For the same substance, the “Gene Expression in tumor samples: very highly over-expressed (+++)” value in series [2] is reported as “AML”.
“98: peptide found in PGR (gene looked up) (SEESAGPLL; listed as Homo sapiens) [compound 98]”: the “Peptide Presentation on cancer entities” value in series [1] is recorded as “BRCA”. Besides, in series [2], the “Gene Expression in tumor samples: highly over-expressed (++)” value is given as “UEC” and the “Gene Expression … over-expressed (+)” value is recorded as “BRCA”.
As to “118: peptide found in LOXL4 (gene looked up) (SEVPVDSHYY; listed as Homo sapiens) [compound 118]”, the “Peptide Presentation on cancer entities” value in series [1] is reported as “GBC”. For the same substance, in series [2], the “Gene Expression in tumor samples: highly over-expressed (++)” value was “MEL” and the “Gene Expression … over-expressed (+)” value was “CCC”.
On to “267: peptide found in APOB (gene looked up) (VELEVPQL; listed as Homo sapiens) [compound 267]”, for which, in series [1], the “Peptide Presentation on cancer entities” value is “GC, HCC”. Also, the “Gene Expression in tumor samples: highly over-expressed (++)” value in series [2] is reported as “HCC”.
“456: peptide found in NRG1 (gene looked up) (SESPIRISV; listed as Homo sapiens) [compound 456]”: the “Peptide Presentation on cancer entities” value in series [1] was “NSCLCsquam, OSCAR, PACA”. The “Gene Expression … over-expressed (+)” value in series [2] was “HNSCC”.
Take “327: peptide found in ROS1 (gene looked up) (SEQHSLPVF; listed as Homo sapiens) [compound 327]”: the “Peptide Presentation on cancer entities” value in series [1] is reported as “NSCLCsquam”. Further, the “Gene Expression … over-expressed (+)” value in series [2] is recorded as “NSCLCadeno, NSCLCother, NSCLCsquam”.
Regarding “101: peptide found in MMP1 (gene looked up) (SEENTGKTY; listed as Homo sapiens) [compound 101]”, in series [1], the “Peptide Presentation on cancer entities” value is given as “OSCAR”. In addition, in series [2], the “Gene Expression in tumor samples: highly over-expressed (++)” value is “HNSCC, NSCLCsquam, OSCAR” and the “Gene Expression … over-expressed (+)” value is reported as “CRC, GC, NSCLCadeno, PACA, UBC”.
Take “239: peptide found in APOB (gene looked up) (DEDYTYLIL; listed as Homo sapiens) [compound 239]”: the “Peptide Presentation on cancer entities” value in series [1] is given as “CCC”. In addition, the “Gene Expression in tumor samples: highly over-expressed (++)” value in series [2] was “HCC”.
Regarding “393: peptide found in NUP155 (gene looked up) (SETILAVGL; listed as Homo sapiens) [compound 393]”, the “Peptide Presentation on cancer entities” value in series [1] is reported as “BRCA, CLL, HCC, NSCLCsquam”. The “Gene Expression … over-expressed (+)” value in series [2] is on record as “NSCLCother, SCLC”.
For “241: peptide found in APOB (gene looked up) (QELLDIANYL; listed as Homo sapiens) [compound 241]”, in series [1], the “Peptide Presentation on cancer entities” value is “CCC, HCC”. Moreover, the “Gene Expression in tumor samples: highly over-expressed (++)” value in series [2] is recorded as “HCC”.
Take “10: peptide found in CLDN6 (gene looked up) (SEYPTKNYV; listed as Homo sapiens) [compound 10]”: in series [1], the “Peptide Presentation on cancer entities” value is “NSCLCadeno”. Moreover, in series [2], the “Gene Expression in tumor samples: highly over-expressed (++)” value is recorded as “CCC, GC, NSCLCadeno” and the “Gene Expression … over-expressed (+)” value is “HCC, HNSCC, NSCLCsquam, OSCAR, PACA, UEC”.
In the case of “304: peptide found in LOXL3 (gene looked up) (RELGFTEATGW; listed as Homo sapiens) [compound 304]”, the “Peptide Presentation on cancer entities” value in series [1] is “CCC, CRC, GBC, MEL, NHL, NSCLCadeno, NSCLCsquam, OSCAR, RCC, UBC, UEC”. Besides, the “Gene Expression in tumor samples: highly over-expressed (++)” value in series [2] is “MEL”.
Regarding “243: peptide found in FERMT1 (gene looked up) (VEQINISQDW; listed as Homo sapiens) [compound 243]”, the “Peptide Presentation on cancer entities” value in series [1] is “CRC, HNSCC”. For the same substance, in series [2], the “Gene Expression in tumor samples: highly over-expressed (++)” value was “CRC” and the “Gene Expression … over-expressed (+)” value is recorded as “GC, HNSCC, NSCLCsquam, OSCAR, UBC”.
As to “36: peptide found in TYR (gene looked up) (LEQASRIWSW; listed as Homo sapiens) [compound 36]”, the “Peptide Presentation on cancer entities” value in series [1] was “MEL”. Also, the “Gene Expression in tumor samples: highly over-expressed (++)” value in series [2] is listed as “MEL”.
For the substance “213: peptide found in FERMT1 (gene looked up) (DEDLFHKL; listed as Homo sapiens) [compound 213]”, the “Peptide Presentation on cancer entities” value in series [1] is “OSCAR”. Also, in series [2], the “Gene Expression in tumor samples: highly over-expressed (++)” value is “CRC” and the “Gene Expression … over-expressed (+)” value is on record as “GC, HNSCC, OSCAR, UBC”.
Take “278: peptide found in ABCC4 (gene looked up) (DQVTVFLHF; listed as Homo sapiens) [compound 278]”: the “Peptide Presentation on cancer entities” value in series [1] was “UBC”. Further, in series [2], the “Gene Expression in tumor samples: highly over-expressed (++)” value is “PRCA”.
For “254: peptide found in EGFR (gene looked up) (QEVAGYVLI; listed as Homo sapiens) [compound 254]”, the “Peptide Presentation on cancer entities” value in series [1] is “NSCLCadeno”. Further, the “Gene Expression in tumor samples: highly over-expressed (++)” value in series [2] was “GBM”.
